Measured values: PMC8602864
Results are given in words; binding and its absence hold for the method and conditions named. In cells and extracts the contact can be indirect. Some entries that bind do so weakly or less than the wild type. For some assays here: Tags and fused reporters may be left off the sequences shown.

Chains of the proteins cited; added tags and fusions are not shown. Lines headed by an entry give the natural chain unless they say otherwise; changes in a name come on top. A line that says so, or that is headed by a name, gives the form on record, which may keep a tag or linker.
UniProt Q9NQG6: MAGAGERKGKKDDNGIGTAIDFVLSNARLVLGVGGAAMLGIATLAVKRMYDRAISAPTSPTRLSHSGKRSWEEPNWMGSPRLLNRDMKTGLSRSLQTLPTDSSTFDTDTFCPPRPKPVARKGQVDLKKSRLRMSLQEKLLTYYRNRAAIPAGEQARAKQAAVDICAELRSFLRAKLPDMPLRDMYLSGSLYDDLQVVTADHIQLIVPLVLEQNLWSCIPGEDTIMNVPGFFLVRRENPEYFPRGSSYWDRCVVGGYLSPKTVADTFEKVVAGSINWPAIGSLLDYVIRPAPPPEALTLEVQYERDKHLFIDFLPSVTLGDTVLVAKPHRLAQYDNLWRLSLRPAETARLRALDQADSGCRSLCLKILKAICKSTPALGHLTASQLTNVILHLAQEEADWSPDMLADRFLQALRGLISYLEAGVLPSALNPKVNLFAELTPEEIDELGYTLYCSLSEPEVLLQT
UniProt O00429: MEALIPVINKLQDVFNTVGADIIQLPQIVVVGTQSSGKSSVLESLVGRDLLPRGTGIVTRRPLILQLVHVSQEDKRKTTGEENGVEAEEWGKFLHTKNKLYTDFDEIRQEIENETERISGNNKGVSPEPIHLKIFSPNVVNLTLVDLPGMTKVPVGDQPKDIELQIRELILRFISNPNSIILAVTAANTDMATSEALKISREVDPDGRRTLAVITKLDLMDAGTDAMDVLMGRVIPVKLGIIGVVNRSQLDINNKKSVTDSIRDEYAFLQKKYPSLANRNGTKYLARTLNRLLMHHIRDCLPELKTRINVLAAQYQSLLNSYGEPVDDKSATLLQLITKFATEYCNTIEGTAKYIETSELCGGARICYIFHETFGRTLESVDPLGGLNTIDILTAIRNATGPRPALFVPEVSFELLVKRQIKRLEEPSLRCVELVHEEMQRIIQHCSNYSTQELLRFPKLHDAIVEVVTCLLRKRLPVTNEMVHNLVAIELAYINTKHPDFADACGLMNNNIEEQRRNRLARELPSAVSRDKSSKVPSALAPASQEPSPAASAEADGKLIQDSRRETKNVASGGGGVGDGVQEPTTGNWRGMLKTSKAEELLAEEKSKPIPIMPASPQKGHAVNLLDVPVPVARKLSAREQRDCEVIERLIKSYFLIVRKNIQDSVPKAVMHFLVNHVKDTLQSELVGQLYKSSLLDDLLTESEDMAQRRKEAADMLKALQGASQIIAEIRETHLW
untagged Drp1-4A (O00429, form named): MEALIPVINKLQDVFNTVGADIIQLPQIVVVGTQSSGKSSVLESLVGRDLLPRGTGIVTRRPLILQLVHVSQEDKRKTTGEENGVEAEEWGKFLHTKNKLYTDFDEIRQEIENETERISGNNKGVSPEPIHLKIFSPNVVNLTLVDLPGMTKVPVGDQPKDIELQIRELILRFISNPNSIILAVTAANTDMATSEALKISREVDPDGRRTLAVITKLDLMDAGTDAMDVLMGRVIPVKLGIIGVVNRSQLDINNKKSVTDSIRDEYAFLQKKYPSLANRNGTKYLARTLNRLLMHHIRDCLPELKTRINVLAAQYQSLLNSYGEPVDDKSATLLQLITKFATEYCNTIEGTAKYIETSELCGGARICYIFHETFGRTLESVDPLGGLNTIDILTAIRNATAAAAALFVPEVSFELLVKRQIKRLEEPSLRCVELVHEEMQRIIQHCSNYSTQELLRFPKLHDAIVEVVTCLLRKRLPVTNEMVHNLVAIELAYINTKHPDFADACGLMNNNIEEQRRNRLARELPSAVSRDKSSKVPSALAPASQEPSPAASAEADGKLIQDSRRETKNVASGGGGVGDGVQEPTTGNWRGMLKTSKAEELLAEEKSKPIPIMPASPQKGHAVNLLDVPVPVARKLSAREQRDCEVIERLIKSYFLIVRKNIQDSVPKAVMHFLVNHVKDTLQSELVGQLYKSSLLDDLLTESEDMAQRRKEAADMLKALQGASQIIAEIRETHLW

Legend:
MIEF1-V5 [1] = molecular target: MIEF1-V5 (UniProt Q9NQG6); assay: co-IP; 293T lines stably expressing MIEF1-V5 or MIEF2-V5, living cells treated with 1 mM DSS for 3 h (or DMSO), lysis in 1% NP-40, anti-V5 agarose beads 2 h at room temperature; blot for endogenous Drp1
MIEF2-V5 [2] = molecular target: T1, MIEF2-V5 (UniProt Q96C03); assay: as above
T1 sequence: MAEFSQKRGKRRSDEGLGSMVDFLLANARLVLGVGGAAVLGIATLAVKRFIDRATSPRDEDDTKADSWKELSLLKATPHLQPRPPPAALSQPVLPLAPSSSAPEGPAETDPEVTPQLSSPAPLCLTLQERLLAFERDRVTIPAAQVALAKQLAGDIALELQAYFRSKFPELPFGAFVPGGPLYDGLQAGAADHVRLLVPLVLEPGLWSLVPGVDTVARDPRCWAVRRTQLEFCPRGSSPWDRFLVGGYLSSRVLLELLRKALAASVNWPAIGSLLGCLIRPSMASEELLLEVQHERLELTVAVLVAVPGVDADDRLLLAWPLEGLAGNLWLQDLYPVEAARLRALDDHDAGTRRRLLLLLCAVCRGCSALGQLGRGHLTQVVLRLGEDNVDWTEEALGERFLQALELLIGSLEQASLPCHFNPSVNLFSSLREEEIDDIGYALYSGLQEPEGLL

MIEF1-V5 [3] = molecular target: MIEF1-V5 (UniProt Q9NQG6); assay: co-IP; Drp1-/- 293T cells co-transfected with Drp1-WT or a Drp1 mutant and MIEF1-V5, MIEF2-V5 or Myc-Mff; in vivo cross-linking with 1% formaldehyde for 10 min; lysis in 1% NP-40; anti-V5 or anti-Myc agarose beads 2 h at room temperature; Western blot
MIEF2-V5 [4] = molecular target: T1, MIEF2-V5; assay: as above

binding (MIEF1-V5 [1]) | binding (MIEF2-V5 [2]) | binding (MIEF1-V5 [3]) | binding (MIEF2-V5 [4]) | Substance
binds | binds | – | – | endogenous Drp1 in 293T cells (from UniProt O00429 1-736)
– | – | binds | binds | untagged Drp1-D218N (from UniProt O00429 1-736)
– | – | binds | binds | untagged Drp1-M482D (from UniProt O00429 1-736)
– | – | binds | binds | untagged wild-type Drp1 (Drp1-WT) (from UniProt O00429 1-736)
– | – | binds | binds | untagged Drp1-A395D (from UniProt O00429 1-736)
– | – | binds | binds | untagged Drp1-4A (from UniProt O00429 1-736)
– | – | binds | binds | untagged Drp1-Q34A (from UniProt O00429 1-736)
